Results reported in publication PMC8456090.
No constants are given. Whether binding was seen depends on the method and setting. Binding seen in cells or lysates may run through a third protein. Some results given as binding are weak or reduced against the parent protein; the word gives no strength.

The chains behind the UniProt entries cited, without tags or fusion partners. Residues count along the entry.
UniProt Q9NZQ7, residues 19-290: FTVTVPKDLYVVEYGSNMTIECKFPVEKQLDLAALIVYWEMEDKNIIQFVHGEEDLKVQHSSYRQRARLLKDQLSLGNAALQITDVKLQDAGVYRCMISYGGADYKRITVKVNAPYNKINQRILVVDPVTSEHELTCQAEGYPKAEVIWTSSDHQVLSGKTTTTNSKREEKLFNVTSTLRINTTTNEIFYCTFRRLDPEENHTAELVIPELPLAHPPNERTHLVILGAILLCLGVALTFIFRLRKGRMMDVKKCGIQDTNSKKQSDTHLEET

Legend:
[1] = target: T1, UL16-binding protein 1 (human (endogenous in MHCC97H and PLC/PRF/5)) (UniProt Q9BZM6); test: co-IP; protein extracted from PLC/PRF/5 and MHCC97H cells, incubated with antibodies for ULBP1, PD-L1 or IgG overnight; protein A/G-agarose beads 4 h; Western blot for ULBP1 and PD-L1
T1 sequence: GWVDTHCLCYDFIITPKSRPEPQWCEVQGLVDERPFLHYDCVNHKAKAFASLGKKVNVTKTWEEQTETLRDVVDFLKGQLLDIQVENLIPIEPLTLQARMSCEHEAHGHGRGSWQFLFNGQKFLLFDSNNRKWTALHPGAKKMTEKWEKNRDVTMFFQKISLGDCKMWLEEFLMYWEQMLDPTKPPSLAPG

[2] = target: programmed cell death-ligand 1 (human (endogenous in MHCC97H and PLC/PRF/5)) (UniProt Q9NZQ7); test: as above

programmed cell death-ligand 1 (from UniProt Q9NZQ7 19-290)
binding [1]: binds

B1: UL16-binding protein 1 (protein, UniProt Q9BZM6 26-216)
chain: GWVDTHCLCYDFIITPKSRPEPQWCEVQGLVDERPFLHYDCVNHKAKAFASLGKKVNVTKTWEEQTETLRDVVDFLKGQLLDIQVENLIPIEPLTLQARMSCEHEAHGHGRGSWQFLFNGQKFLLFDSNNRKWTALHPGAKKMTEKWEKNRDVTMFFQKISLGDCKMWLEEFLMYWEQMLDPTKPPSLAPG
binding [2]: binds
